Data: publication PMC5595348
These are yes or no findings as the source states them, for the method shown. Binding seen in cells or lysates may run through a third protein. Some results given as binding are weak or reduced against the parent protein; the word gives no strength. Sequences can lack the tags named with a protein.

Amino acid sequences for entries named in this document (tags omitted).
UniProt O14964: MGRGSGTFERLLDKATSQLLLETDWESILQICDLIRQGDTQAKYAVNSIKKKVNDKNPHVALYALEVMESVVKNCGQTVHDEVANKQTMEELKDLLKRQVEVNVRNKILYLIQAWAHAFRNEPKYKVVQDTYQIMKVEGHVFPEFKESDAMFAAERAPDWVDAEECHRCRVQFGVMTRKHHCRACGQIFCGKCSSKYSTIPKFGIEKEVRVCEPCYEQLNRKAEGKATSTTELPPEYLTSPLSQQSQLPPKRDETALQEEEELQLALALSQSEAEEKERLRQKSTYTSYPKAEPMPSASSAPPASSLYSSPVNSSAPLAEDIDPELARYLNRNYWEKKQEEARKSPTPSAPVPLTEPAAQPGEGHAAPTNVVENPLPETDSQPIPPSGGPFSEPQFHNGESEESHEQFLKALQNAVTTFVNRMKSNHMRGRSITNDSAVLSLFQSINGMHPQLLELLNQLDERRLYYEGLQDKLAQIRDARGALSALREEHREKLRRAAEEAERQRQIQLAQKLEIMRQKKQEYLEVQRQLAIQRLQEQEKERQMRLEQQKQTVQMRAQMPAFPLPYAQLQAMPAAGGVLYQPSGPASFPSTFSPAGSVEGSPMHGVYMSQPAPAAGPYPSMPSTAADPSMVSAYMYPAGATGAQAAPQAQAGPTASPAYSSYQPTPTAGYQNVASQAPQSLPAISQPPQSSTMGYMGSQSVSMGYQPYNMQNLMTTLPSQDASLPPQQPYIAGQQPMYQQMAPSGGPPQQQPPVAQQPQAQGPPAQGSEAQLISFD
UniProt P51617: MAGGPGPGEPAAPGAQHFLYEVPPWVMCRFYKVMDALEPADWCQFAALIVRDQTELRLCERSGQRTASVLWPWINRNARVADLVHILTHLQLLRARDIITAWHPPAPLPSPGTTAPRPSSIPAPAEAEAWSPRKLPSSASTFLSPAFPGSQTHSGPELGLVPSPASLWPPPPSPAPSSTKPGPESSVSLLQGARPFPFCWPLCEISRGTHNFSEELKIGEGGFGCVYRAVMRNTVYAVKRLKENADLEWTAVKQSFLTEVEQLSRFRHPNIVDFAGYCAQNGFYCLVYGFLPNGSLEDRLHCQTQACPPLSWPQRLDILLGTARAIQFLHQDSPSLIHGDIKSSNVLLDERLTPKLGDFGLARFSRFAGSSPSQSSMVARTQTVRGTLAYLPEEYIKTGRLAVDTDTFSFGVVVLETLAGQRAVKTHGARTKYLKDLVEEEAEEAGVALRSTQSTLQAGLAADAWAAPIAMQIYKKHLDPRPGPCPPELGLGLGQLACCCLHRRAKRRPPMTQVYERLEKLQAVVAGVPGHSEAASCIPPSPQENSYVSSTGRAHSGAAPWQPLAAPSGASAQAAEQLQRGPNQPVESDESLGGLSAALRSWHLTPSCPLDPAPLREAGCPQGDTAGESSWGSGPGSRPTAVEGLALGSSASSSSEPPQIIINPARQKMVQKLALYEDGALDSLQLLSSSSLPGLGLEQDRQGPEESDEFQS
UniProt Q99836: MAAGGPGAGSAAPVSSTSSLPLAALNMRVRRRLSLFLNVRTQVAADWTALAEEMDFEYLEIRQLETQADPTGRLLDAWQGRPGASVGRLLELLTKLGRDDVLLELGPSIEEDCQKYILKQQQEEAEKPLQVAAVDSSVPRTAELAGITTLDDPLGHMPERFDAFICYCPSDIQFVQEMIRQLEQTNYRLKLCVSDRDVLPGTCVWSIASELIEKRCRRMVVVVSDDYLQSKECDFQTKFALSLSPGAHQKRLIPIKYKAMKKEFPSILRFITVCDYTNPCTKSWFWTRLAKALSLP

molecular target: HRS-Myc fusion protein (hepatocyte growth factor-regulated tyrosine kinase substrate) (human) (UniProt O14964); assay: co-IP; HEK293T cells co-transfected with HRS-Myc and GFP or GFP fusion proteins; whole cell lysates immunoprecipitated with anti-Myc antibody; Western blot with anti-GFP and anti-Myc

Molecule | binding
GFP-tagged IRAK1 (from UniProt P51617 1-712) | no binding
GFP-tagged MyD88 (from UniProt Q99836 1-296) | no binding

More lines, now with the values ahead:

binding | Molecule
binds | GFP-tagged TAB1 (protein, UniProt Q15750 1-504) MAAQRRSLLQSEQQPSWTDDLPLCHLSGVGSASNRSYSADGKGTESHPPEDSWLKFRSENNCFLYGVFNGYDGNRVTNFVAQRLSAELLLGQLNAEHAEADVRRVLLQAFDVVERSFLESIDDALAEKASLQSQLPEGVPQHQLPPQYQKILERLKTLEREISGGAMAVVAVLLNNKLYVANVGTNRALLCKSTVDGLQVTQLNVDHTTENEDELFRLSQLGLDAGKIKQVGIICGQESTRRIGDYKVKYGYTDIDLLSAAKSKPIIAEPEIHGAQPLDGVTGFLVLMSEGLYKALEAAHGPGQANQEIAAMIDTEFAKQTSLDAVAQAVVDRVKRIHSDTFASGGERARFCPRHEDMTLLVRNFGYPLGEMSQPTPSPAPAAGGRVYPVSVPYSSAQSTSKTSVTLSLVMPSQGQMVNGAHSASTLDEATPTLTNQSPTLTLQSTNTHTQSSSSSSDGGLFRSRPAHSLPPGEDGRVEPYVDFAEFYRLWSVDHGEQSVVTAP
binds | GFP-tagged TAK1 (protein, UniProt O43318 1-606) MSTASAASSSSSSSAGEMIEAPSQVLNFEEIDYKEIEVEEVVGRGAFGVVCKAKWRAKDVAIKQIESESERKAFIVELRQLSRVNHPNIVKLYGACLNPVCLVMEYAEGGSLYNVLHGAEPLPYYTAAHAMSWCLQCSQGVAYLHSMQPKALIHRDLKPPNLLLVAGGTVLKICDFGTACDIQTHMTNNKGSAAWMAPEVFEGSNYSEKCDVFSWGIILWEVITRRKPFDEIGGPAFRIMWAVHNGTRPPLIKNLPKPIESLMTRCWSKDPSQRPSMEEIVKIMTHLMRYFPGADEPLQYPCQYSDEGQSNSATSTGSFMDIASTNTSNKSDTNMEQVPATNDTIKRLESKLLKNQAKQQSESGRLSLGASRGSSVESLPPTSEGKRMSADMSEIEARIAATTAYSKPKRGHRKTASFGNILDVPEIVISGNGQPRRRSIQDLTVTGTEPGQVSSRSSSPSVRMITTSGPTSEKPTRSHPWTPDDSTDTNGSDNSIPMAYLTLDHQLQPLAPCPNSKESMAVFEQHCKMAQEYMKVQTEIALLLQRKQELVAELDQDEKDQQNTSRLVQEHKKLLDENKSLSTYYQQCKKQLEVIRSQQQKRQGTS
binds | GFP-tagged TLR7 (receptor, UniProt Q9NYK1 27-1049) ARWFPKTLPCDVTLDVPKNHVIVDCTDKHLTEIPGGIPTNTTNLTLTINHIPDISPASFHRLDHLVEIDFRCNCVPIPLGSKNNMCIKRLQIKPRSFSGLTYLKSLYLDGNQLLEIPQGLPPSLQLLSLEANNIFSIRKENLTELANIEILYLGQNCYYRNPCYVSYSIEKDAFLNLTKLKVLSLKDNNVTAVPTVLPSTLTELYLYNNMIAKIQEDDFNNLNQLQILDLSGNCPRCYNAPFPCAPCKNNSPLQIPVNAFDALTELKVLRLHSNSLQHVPPRWFKNINKLQELDLSQNFLAKEIGDAKFLHFLPSLIQLDLSFNFELQVYRASMNLSQAFSSLKSLKILRIRGYVFKELKSFNLSPLHNLQNLEVLDLGTNFIKIANLSMFKQFKRLKVIDLSVNKISPSGDSSEVGFCSNARTSVESYEPQVLEQLHYFRYDKYARSCRFKNKEASFMSVNESCYKYGQTLDLSKNSIFFVKSSDFQHLSFLKCLNLSGNLISQTLNGSEFQPLAELRYLDFSNNRLDLLHSTAFEELHKLEVLDISSNSHYFQSEGITHMLNFTKNLKVLQKLMMNDNDISSSTSRTMESESLRTLEFRGNHLDVLWREGDNRYLQLFKNLLKLEELDISKNSLSFLPSGVFDGMPPNLKNLSLAKNGLKSFSWKKLQCLKNLETLDLSHNQLTTVPERLSNCSRSLKNLILKNNQIRSLTKYFLQDAFQLRYLDLSSNKIQMIQKTSFPENVLNNLKMLLLHHNRFLCTCDAVWFVWWVNHTEVTIPYLATDVTCVGPGAHKGQSVISLDLYTCELDLTNLILFSLSISVSLFLMVMMTASHLYFWDVWYIYHFCKAKIKGYQRLISPDCCYDAFIVYDTKDPAVTEWVLAELVAKLEDPREKHFNLCLEERDWLPGQPVLENLSQSIQLSKKTVFVMTDKYAKTENFKIAFYLSHQRLMDEKVDVIILIFLEKPFQKSKFLQLRKRLCGSSVLEWPTNPQAHPYFWQCLKNALATDNHVAYSQVFKETV
